The test system of this series is mSWI/SNF complexes. Nature of the series: mSWI/SNF complex purification with HA-tagged baits and mass spectrometry (peptide counts). Also on record: species or system human.
Setting [1] is: 293_HA-BRD7 bait purification, mass spectrometry, total peptides per co-purified protein.
Setting [2] is: 293_HA-BRD7 bait purification, mass spectrometry, unique peptides per co-purified protein.

B1: DHX15 (protein)
chain: MSKRHRLDLGEDYPSGKKRAGTDGKDRDRDRDREDRSKDRDRERDRGDREREREKEKEKELRASTNAMLISAGLPPLKASHSAHSTHSAHSTHSTHSAHSTHAGHAGHTSLPQCINPFTNLPHTPRYYDILKKRLQLPVWEYKDRFTDILVRHQSFVLVGETGSGKTTQIPQWCVEYMRSLPGPKRGVACTQPRRVAAMSVAQRVADEMDVMLGQEVGYSIRFEDCSSAKTILKYMTDGMLLREAMNDPLLERYGVIILDEAHERTLATDILMGVLKEVVRQRSDLKVIVMSATLDAGKFQIYFDNCPLLTIPGRTHPVEIFYTPEPERDYLEAAIRTVIQIHMCEEEEGDLLLFLTGQEEIDEACKRIKREVDDLGPEVGDIKIIPLYSTLPPQQQQRIFEPPPPKKQNGAIGRKVVVSTNIAETSLTIDGVVFVIDPGFAKQKVYNPRIRVESLLVTAISKASAQQRAGRAGRTRPGKCFRLYTEKAYKTEMQDNTYPEILRSNLGSVVLQLKKLGIDDLVHFDFMDPPAPETLMRALELLNYLAALNDDGDLTELGSMMAEFPLDPQLAKMVIASCDYNCSNEVLSITAMLSVPQCFVRPTEAKKAADEAKMRFAHIDGDHLTLLNVYHAFKQNHESVQWCYDNFINYRSLMSADNVRQQLSRIMDRFNLPRRSTDFTSRDYYINIRKALVTGYFMQVAHLERTGHYLTVKDNQVVQLHPSTVLDHKPEWVLYNEFVLTTKNYIRTCTDIKPEWLVKIAPQYYDMSNFPQCEAKRQLDRIIAKLQSKEYSQY
Take B1: the Total under setting [1] was determined as 3. This molecule yielded a Unique under setting [2] of 3.

B2: CANX (protein, UniProt P27824 21-592, looked up)
Calnexin: HDGHDDDVIDIEDDLDDVIEEVEDSKPDTTAPPSSPKVTYKAPVPTGEVYFADSFDRGTLSGWILSKAKKDDTDDEIAKYDGKWEVEEMKESKLPGDKGLVLMSRAKHHAISAKLNKPFLFDTKPLIVQYEVNFQNGIECGGAYVKLLSKTPELNLDQFHDKTPYTIMFGPDKCGEDYKLHFIFRHKNPKTGIYEEKHAKRPDADLKTYFTDKKTHLYTLILNPDNSFEILVDQSVVNSGNLLNDMTPPVNPSREIEDPEDRKPEDWDERPKIPDPEAVKPDDWDEDAPAKIPDEEATKPEGWLDDEPEYVPDPDAEKPEDWDEDMDGEWEAPQIANPRCESAPGCGVWQRPVIDNPNYKGKWKPPMIDNPSYQGIWKPRKIPNPDFFEDLEPFRMTPFSAIGLELWSMTSDIFFDNFIICADRRIVDDWANDGWGLKKAADGAAEPGVVGQMIEAAEERPWLWVVYILTVALPVFLVILFCCSGKKQTSGMEYKKTDAPQPDVKEEEEEKEEEKDKGDEEEEGEEKLEEKQKSDAEEDGGTVSQEEEDRKPKAEEDEILNRSPRNRKPRRE
With B2, under setting [1], the Total amounted to 4. Under setting [2], this molecule displayed a Unique of 3.

B3: DDX1 (protein, UniProt Q92499 1-740, looked up)
ATP-dependent RNA helicase …: MAAFSEMGVMPEIAQAVEEMDWLLPTDIQAESIPLILGGGDVLMAAETGSGKTGAFSIPVIQIVYETLKDQQEGKKGKTTIKTGASVLNKWQMNPYDRGSAFAIGSDGLCCQSREVKEWHGCRATKGLMKGKHYYEVSCHDQGLCRVGWSTMQASLDLGTDKFGFGFGGTGKKSHNKQFDNYGEEFTMHDTIGCYLDIDKGHVKFSKNGKDLGLAFEIPPHMKNQALFPACVLKNAELKFNFGEEEFKFPPKDGFVALSKAPDGYIVKSQHSGNAQVTQTKFLPNAPKALIVEPSRELAEQTLNNIKQFKKYIDNPKLRELLIIGGVAARDQLSVLENGVDIVVGTPGRLDDLVSTGKLNLSQVRFLVLDEADGLLSQGYSDFINRMHNQIPQVTSDGKRLQVIVCSATLHSFDVKKLSEKIMHFPTWVDLKGEDSVPDTVHHVVVPVNPKTDRLWERLGKSHIRTDDVHAKDNTRPGANSPEMWSEAIKILKGEYAVRAIKEHKMDQAIIFCRTKIDCDNLEQYFIQQGGGPDKKGHQFSCVCLHGDRKPHERKQNLERFKKGDVRFLICTDVAARGIDIHGVPYVINVTLPDEKQNYVHRIGRVGRAERMGLAISLVATEKEKVWYHVCSSRGKGCYNTRLKEDGGCTIWYNEMQLLSEIEEHLNCTISQVEPDIKVPVDEFDGKVTYGQKRAAGGGSYKGHVDILAPTVQELAALEKEAQTSFLHLGYLPNQLFRTF
Under setting [1], B3 showed a Total of 3. The molecule also had a Unique under setting [2] of 3.

B4: BCL7B (protein)
chain: MSGRSVRAETRSRAKDDIKKVMAAIEKVRKWEKKWVTVGDTSLRIFKWVPVTDSKEKEKSKSNSSAAREPNGFPSDASANSSLLLEFQDENSNQSSVSDVYQLKVDSSTNSSPSPQQSESLSPAHTSDFRTDDSQPPTLGQEILEEPSLPSSEVADEPPTLTKEEPVPLETQVVEEEEDSGAPPLKRFCVDQPTVPQTASES
In the case of B4, under setting [1], the Total came to 4. This molecule also had a Unique under setting [2] of 3.

B5: PYCR1 (protein, UniProt P32322 2-319, looked up)
Pyrroline-5-carboxylate …: SVGFIGAGQLAFALAKGFTAAGVLAAHKIMASSPDMDLATVSALRKMGVKLTPHNKETVQHSDVLFLAVKPHIIPFILDEIGADIEDRHIVVSCAAGVTISSIEKKLSAFRPAPRVIRCMTNTPVVVREGATVYATGTHAQVEDGRLMEQLLSSVGFCTEVEEDLIDAVTGLSGSGPAYAFTALDALADGGVKMGLPRRLAVRLGAQALLGAAKMLLHSEQHPGQLKDNVSSPGGATIHALHVLESGGFRSLLINAVEASCIRTRELQSMADQEQVSPAAIKKTILDKVKLDSPAGTALSPSGHTKLLPRSLAPAGKD
As to B5, the Total under setting [1] came out at 3. Moreover, the Unique under setting [2] is 3.

B6: HNRNPA1 (protein, UniProt P09651 1-372, looked up)
Heterogeneous nuclear …: MSKSESPKEPEQLRKLFIGGLSFETTDESLRSHFEQWGTLTDCVVMRDPNTKRSRGFGFVTYATVEEVDAAMNARPHKVDGRVVEPKRAVSREDSQRPGAHLTVKKIFVGGIKEDTEEHHLRDYFEQYGKIEVIEIMTDRGSGKKRGFAFVTFDDHDSVDKIVIQKYHTVNGHNCEVRKALSKQEMASASSSQRGRSGSGNFGGGRGGGFGGNDNFGRGGNFSGRGGFGGSRGGGGYGGSGDGYNGFGNDGGYGGGGPGYSGGSRGYGSGGQGYGNQGSGYGGSGSYDSYNNGGGGGFGGGSGSNFGGGGSYNDFGNYNNQSSNFGPMKGGNFGGRSSGPYGGGGQYFAKPRNQGGYGGSSSSSSYGSGRRF
Take B6: under setting [1], the Total came out at 4. Moreover, the Unique under setting [2] turned out to be 3.

B7: KRT2 (protein, UniProt P35908 1-639, looked up)
Keratin, type II cytoskeletal …: MSCQISCKSRGRGGGGGGFRGFSSGSAVVSGGSRRSTSSFSCLSRHGGGGGGFGGGGFGSRSLVGLGGTKSISISVAGGGGGFGAAGGFGGRGGGFGGGSSFGGGSGFSGGGFGGGGFGGGRFGGFGGPGGVGGLGGPGGFGPGGYPGGIHEVSVNQSLLQPLNVKVDPEIQNVKAQEREQIKTLNNKFASFIDKVRFLEQQNQVLQTKWELLQQMNVGTRPINLEPIFQGYIDSLKRYLDGLTAERTSQNSELNNMQDLVEDYKKKYEDEINKRTAAENDFVTLKKDVDNAYMIKVELQSKVDLLNQEIEFLKVLYDAEISQIHQSVTDTNVILSMDNSRNLDLDSIIAEVKAQYEEIAQRSKEEAEALYHSKYEELQVTVGRHGDSLKEIKIEISELNRVIQRLQGEIAHVKKQCKNVQDAIADAEQRGEHALKDARNKLNDLEEALQQAKEDLARLLRDYQELMNVKLALDVEIATYRKLLEGEECRMSGDLSSNVTVSVTSSTISSNVASKAAFGGSGGRGSSSGGGYSSGSSSYGSGGRQSGSRGGSGGGGSISGGGYGSGGGSGGRYGSGGGSKGGSISGGGYGSGGGKHSSGGGSRGGSSSGGGYGSGGGGSSSVKGSSGEAFGSSVTFSFR
As for B7, under “293_HA-BRD7: HA-BRD7 bait purification, total peptide count per co-purified protein”, the Total is reported as 31. This molecule came in with a Unique (293_HA-BRD7: HA-BRD7 bait purification, unique peptide count per co-purified protein) of 25.

B8: WDR33 (protein, UniProt Q9C0J8 2-1336, looked up)
pre-mRNA 3' end processing …: ATEIGSPPRFFHMPRFQHQAPRQLFYKRPDFAQQQAMQQLTFDGKRMRKAVNRKTIDYNPSVIKYLENRIWQRDQRDMRAIQPDAGYYNDLVPPIGMLNNPMNAVTTKFVRTSTNKVKCPVFVVRWTPEGRRLVTGASSGEFTLWNGLTFNFETILQAHDSPVRAMTWSHNDMWMLTADHGGYVKYWQSNMNNVKMFQAHKEAIREASFSPTDNKFATCSDDGTVRIWDFLRCHEERILRGHGADVKCVDWHPTKGLVVSGSKDSQQPIKFWDPKTGQSLATLHAHKNTVMEVKLNLNGNWLLTASRDHLCKLFDIRNLKEELQVFRGHKKEATAVAWHPVHEGLFASGGSDGSLLFWHVGVEKEVGGMEMAHEGMIWSLAWHPLGHILCSGSNDHTSKFWTRNRPGDKMRDRYNLNLLPGMSEDGVEYDDLEPNSLAVIPGMGIPEQLKLAMEQEQMGKDESNEIEMTIPGLDWGMEEVMQKDQKKVPQKKVPYAKPIPAQFQQAWMQNKVPIPAPNEVLNDRKEDIKLEEKKKTQAEIEQEMATLQYTNPQLLEQLKIERLAQKQVEQIQPPPSSGTPLLGPQPFPGQGPMSQIPQGFQQPHPSQQMPMNMAQMGPPGPQGQFRPPGPQGQMGPQGPPLHQGGGGPQGFMGPQGPQGPPQGLPRPQDMHGPQGMQRHPGPHGPLGPQGPPGPQGSSGPQGHMGPQGPPGPQGHIGPQGPPGPQGHLGPQGPPGTQGMQGPPGPRGMQGPPHPHGIQGGPGSQGIQGPVSQGPLMGLNPRGMQGPPGPRENQGPAPQGMIMGHPPQEMRGPHPPGGLLGHGPQEMRGPQEIRGMQGPPPQGSMLGPPQELRGPPGSQSQQGPPQGSLGPPPQGGMQGPPGPQGQQNPARGPHPSQGPIPFQQQKTPLLGDGPRAPFNQEGQSTGPPPLIPGLGQQGAQGRIPPLNPGQGPGPNKGDSRGPPNHHMGPMSERRHEQSGGPEHGPERGPFRGGQDCRGPPDRRGPHPDFPDDFSRPDDFHPDKRFGHRLREFEGRGGPLPQEEKWRRGGPGPPFPPDHREFSEGDGRGAARGPPGAWEGRRPGDERFPRDPEDPRFRGRREESFRRGAPPRHEGRAPPRGRDGFPGPEDFGPEENFDASEEAARGRDLRGRGRGTPRGGRKGLLPTPDEFPRFEGGRKPDSWDGNREPGPGHEHFRDTPRPDHPPHDGHSPASRERSSSLQGMDMASLPPRKRPWHDGPGTSEHREMEAPGGPSEDRGGKGRGGPGPAQRVPKSGRSSSLDGEHHDGYHRDEPFGGPPGSGTPSRGGRSGSNWGRGSNMNSGPPRRGASRGGGRGR
Consider B8, for which the Total under setting [1] is on record as 4. Under setting [2], this molecule registered a Unique of 3.

B9: PHB (protein, UniProt P35232 2-272, looked up)
Prohibitin 1: AAKVFESIGKFGLALAVAGGVVNSALYNVDAGHRAVIFDRFRGVQDIVVGEGTHFLIPWVQKPIIFDCRSRPRNVPVITGSKDLQNVNITLRILFRPVASQLPRIFTSIGEDYDERVLPSITTEILKSVVARFDAGELITQRELVSRQVSDDLTERAATFGLILDDVSLTHLTFGKEFTEAVEAKQVAQQEAERARFVVEKAEQQKKAAIISAEGDSKAAELIANSLATAGDGLIELRKLEAAEDIAYQLSRSRNITYLPAGQSVLLQLPQ
B9 came in with a Total under setting [1] of 3. Under setting [2], this molecule yielded a Unique of 3.
